Measurements published in PubChem BioAssay AID493014 (National Center for Advancing Translational Sciences (NCATS), 2011).
The other results are listed elsewhere or left out. Further columns of the screen follow, without active or inactive calls. Most of these compounds were active or inconclusive in the main read-out, so they are no random draw. Words in brackets tell the shape of the fitted curve; partial curves, single points and poor fits give uncertain potencies.

Test: qHTS Assay to Find Inhibitors of Chronic Active B-Cell Receptor Signaling
Conditions: ABC-DLBCL IkBa-CBG/CBR reporter, luminescence ratio (green luciferase fused to IkBa over red control in TMD8 lymphoma cells), 4 h
How it was run: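 TMD8 ABC-DLBCL cells carrying doxycycline-inducible green luciferase fused to IkappaBalpha plus unfused red luciferase were exposed to compounds (up to 46 uM) for 4 hrs at 37C. Activity came from the overlap-corrected green/red luminescence ratio.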

[1] = measured here: CBR red luminescence, cell number
[2] = measured here: IkBa-CBG green luminescence

For CCn1cc(C(=O)O)c(=O)c2cnc(N3CCN(C(=S)NC(=O)c4ccc(OC)cc4)CC3)nc21, the AC50 [1] was 0.355 µM [rising, full curve, poor fit].

For CN1C(=O)C(O)(C2COC(C)(C)CC2=O)c2cc(Br)ccc21 (stereo not drawn), the AC50 [1] was 20.6 µM [rising, single point] and the AC50 [2] was 20.6 µM [falling, single point].

In the case of O=C(NC1CCCC1)C(c1c[nH]c2ccccc12)N(C(=O)Cn1nnc(-c2ccc(Cl)cc2)n1)c1ccccc1 (stereo not drawn), the AC50 [1] is reported as 2 µM [falling, full curve].

With CC(=O)c1csc(COc2ccc(Cl)cc2)n1 the AC50 [1] was 2.24 µM [falling, full curve].

In the case of N/C(=N\OC(=O)C12CC3CC(CC(C3)C1)C2)c1ccccn1, the AC50 [1] is reported as 2.59 µM [rising, full curve].

In the case of O=C(Nc1nc(-c2ccc(-c3ccccc3)cc2)cs1)C1CCCO1 (stereo not drawn), the AC50 [1] is reported as 5.17 µM [falling, partial curve].

With CC(=O)NS(=O)(=O)c1ccc(NC(=O)CSc2ccccc2)cc1 the AC50 [1] was 35.5 µM [rising, single point].

With CC(C)(C)NC(=O)CSc1ncnc2c1nnn2Cc1ccccc1Cl the AC50 [1] was 10 µM [falling, partial curve, poor fit].

For CCOC(=O)c1ccc(N2C(=O)CC(NC3CCN(C(=O)c4cccc(Cl)c4)CC3)C2=O)cc1 (stereo not drawn), the AC50 [1] was 29.1 µM [rising, single point].

In the case of O=C(Nc1cc2ccccc2oc1=O)C1CCCCC1, the AC50 [1] is reported as 1 µM [falling, full curve].

In the case of COCCNC(=O)CCc1c(C)nc2c(c(C)nn2-c2ccc(C)c(C)c2)c1C, the AC50 [1] is reported as 7.08 µM [rising, partial curve, poor fit].

For C=CCCCCCCCCC(=O)N1CCN(c2cc3c(cc2F)c(=O)c(C(=O)O)cn3CC)CC1, the AC50 [1] was 0.631 µM [rising, full curve, poor fit].

With Cc1cc(C)cc(C(=O)NC(CC(N)=O)c2ccc(NCCN3CCOCC3)c([N+](=O)[O-])c2)c1 (stereo not drawn) the AC50 [1] was 5.62 µM [falling, full curve].

In the case of CC12CCC(C(=O)NC3CCCCC3)([C@H](Br)C1=O)C2(C)C (stereo partly drawn), the AC50 [1] is reported as 0.631 µM [rising, full curve, poor fit].

In the case of N#Cc1ccc(C(=O)CSc2nnc(-c3ccc(C(F)(F)F)cn3)s2)cc1, the AC50 [1] is reported as 35.5 µM [falling, single point] and the AC50 [2] is reported as 5.62 µM [falling, single point].

With O=c1oc(-c2ccc(Br)cc2)nc2ccccc12 the AC50 [1] was 0.891 µM [falling, full curve].

With O=C(/C(=C/O)N=Nc1ccccc1)c1ccc(Cl)cc1 the AC50 [1] was 17.8 µM [rising, partial curve, poor fit].

With CCOC(=O)c1ccc(NC(=S)N2CCN(CCN=CC3=C(O)CC(C)(C)CC3=O)CC2)cc1 the AC50 [1] was 15.8 µM [falling, single point] and the AC50 [2] was 15.8 µM [rising, partial curve, poor fit].

With Cc1ccc(S(=O)(=O)N(C)CC(=O)O/N=C(\N)c2cccc(Br)c2)cc1 the AC50 [1] was 31.6 µM [rising, single point].

In the case of COc1ccc(CC(=O)O/N=C(\N)c2ccncc2)cc1, the AC50 [1] is reported as 11.2 µM [rising, partial curve].

For Cc1ccc2nc(SCC(=O)NCc3ccco3)c(C#N)cc2c1, the AC50 [1] was 5.8 µM [falling, single point].

In the case of Cc1cccc(-n2c(C)cc(/C=N\NC(=O)c3ccco3)c2C)c1, the AC50 [1] is reported as 3.55 µM [falling, partial curve, poor fit] and the AC50 [2] is reported as 5.01 µM [rising, partial curve, poor fit].

For O=C(NCCc1c[nH]c2ccccc12)[C@@H]1C[C@H]1[C@@H](NP(=O)(c1ccccc1)c1ccccc1)c1ccccc1, the AC50 [1] was 23.1 µM [falling, single point].

With CCCCn1c(-c2cccc(C)c2)nc2cc3[nH]c(=O)c(C(C)C)nc3cc21 the AC50 [1] was 11.2 µM [falling, partial curve] and the AC50 [2] was 8.91 µM [rising, partial curve, poor fit].

In the case of Cc1ccc(-n2nc(C)cc2Nc2ncc(Cl)cc2Cl)cc1, the AC50 [1] is reported as 29.1 µM [rising, single point].

In the case of O=Cc1cnc(N2CCN(c3ccccc3)CC2)s1, the AC50 [1] is reported as 12.6 µM [rising, partial curve, poor fit].

For Cc1cccn2c(=O)c3cc(S(=O)(=O)c4ccccc4)c(=N)n(Cc4ccc(F)cc4)c3nc12, the AC50 [1] was 6.31 µM [falling, partial curve, poor fit].

With Cc1ccc(-n2nc3c(c2NC(=O)c2c(F)cccc2Cl)CS(=O)(=O)C3)cc1C the AC50 [1] was 35.5 µM [falling, single point].

For COc1ccc(C(=O)Nc2ccc(NS(=O)(=O)c3ccccc3)cc2)cc1OC, the AC50 [1] was 35.5 µM [falling, single point].

With Cc1ccc(N2C(=O)c3ccccc3C2O)nc1 (stereo not drawn) the AC50 [1] was 16.4 µM [falling, partial curve].

With COc1cc(C)c(Cl)cc1S(=O)(=O)N1CCSC1 the AC50 [1] was 17.8 µM [rising, partial curve, poor fit].

With Cc1ccc(OCC(=O)N2CCN(c3nnc(-c4ccc(C)cc4)c4ccccc34)CC2)cc1 the AC50 [1] was 16.4 µM [rising, single point].

With CCc1nnc(NC(=O)CCN(c2ccc(C)cc2)S(=O)(=O)c2ccccc2)s1 the AC50 [1] was 18.4 µM [falling, partial curve, poor fit].

In the case of CC(=O)NCCc1nc2cc(NC(=O)c3ccccc3)ccc2n1C, the AC50 [1] is reported as 7.08 µM [falling, partial curve].

In the case of Cc1cc(C)cc(-n2nnn(C3C/C(=N/NC(N)=S)C4OCC3O4)c2=S)c1 (stereo not drawn), the AC50 [1] is reported as 35.5 µM [falling, single point].

With Cc1ccccc1NC(=O)C1C2/C=C\CCCCC21 (stereo not drawn) the AC50 [1] was 0.58 µM [falling, full curve, poor fit].

With CCn1nc(C)c(NC(=O)CCSc2nc(-c3ccco3)cc(C(F)(F)F)n2)c1C the AC50 [1] was 35.5 µM [falling, single point].

With O=C1CCCc2[nH]nc(-c3cccnc3)c21 the AC50 [1] was 0.731 µM [falling, full curve, poor fit].

For CCN(CC)S(=O)(=O)c1ccc(OC)c(NC(=O)c2ccc(N3CCCC3=O)cc2)c1, the AC50 [2] was 23.1 µM [falling, partial curve, poor fit].

In the case of O=S(=O)(NCc1cccnc1)c1ccc(Cl)c2ccccc12, the AC50 [1] is reported as 5.01 µM [rising, single point].

In the case of CCCn1c(-c2nonc2N)nc2ccccc21, the AC50 [2] is reported as 3.66 µM [rising, partial curve, poor fit].

With CC1CCCCN1Cc1ccc(-c2nn[nH]n2)cc1 (stereo not drawn) the AC50 [1] was 29.1 µM [rising, single point].

For O=C(CSc1cn(CCNC(=O)c2cccs2)c2ccccc12)NC1CCCCC1, the AC50 [1] was 14.6 µM [falling, partial curve, poor fit].

For CC1CC(C)(C)n2c(O)c(N=NC(N)=S)c3cccc1c32 (stereo not drawn), the AC50 [1] was 2 µM [rising, full curve, poor fit] and the AC50 [2] was 5.62 µM [falling, single point].

For COc1ccc(S(=O)(=O)Nc2ccc3c(c2)CC(=O)N([C@@H](C)CO)C[C@H](C)[C@@H](CN(C)S(=O)(=O)c2ccc(F)cc2)O3)cc1, the AC50 [1] was 16.4 µM [rising, partial curve].

With O=c1[nH]ncc(N/N=C\c2cccnc2)c1Cl the AC50 [1] was 0.0891 µM [rising, full curve, poor fit].

For C=CCS/C(=N\n1cnc2ccccc2c1=O)N(CC)CC, the AC50 [1] was 2.31 µM [rising, single point].

For Cc1ccc(CCNC(=O)CCn2nc(-c3ccc(C)cc3)ccc2=O)cc1, the AC50 [1] was 0.251 µM [rising, full curve, poor fit].

In the case of COc1cc(OC)c2c(-c3cccc(-c4ccc(OC(F)(F)F)cc4)c3)cc(=O)oc2c1, the AC50 [1] is reported as 23.1 µM [rising, single point].

With CCOc1ccc(NC(N)=O)cc1OCC the AC50 [1] was 9.2 µM [rising, partial curve].

In the case of O=C(NNC(=O)c1cc(S(=O)(=O)N2CCCCC2)ccc1Cl)c1ccccc1O, the AC50 [1] is reported as 29.1 µM [falling, single point].

For COc1cccc2cc(-c3nc4ccccc4[nH]3)c(=O)oc12, the AC50 [1] was 3.98 µM [falling, partial curve, poor fit].

With COc1cc2c(C#CCO)c(-c3ccc(C#N)cc3)oc(=O)c2cc1OC the AC50 [1] was 4.11 µM [falling, single point].

For Cc1nc2ccc(S(=O)(=O)NC(C(=O)NCc3ccc4c(c3)OCO4)C(C)C)cc2s1 (stereo not drawn), the AC50 [1] was 6.51 µM [rising, single point].

For O=C(c1cc(COc2c(F)cccc2F)on1)N1CCC(c2ccncc2)CC1, the AC50 [1] was 4.47 µM [rising, full curve, poor fit].

For CCOC(=O)/C(C#N)=N/Nc1ccccc1C#N, the AC50 [1] was 0.562 µM [rising, full curve, poor fit].

With O=C(NC(=O)N1CCN(c2ccccc2)CC1)c1ccc(Cl)cc1 the AC50 [1] was 1.16 µM [rising, partial curve, poor fit].

For Cc1cc(NC(=O)CC2Oc3ccccc3NC2=O)ccc1Br (stereo not drawn), the AC50 [1] was 11.2 µM [falling, single point].

With COc1cc(/C=c2/sc3nc(-c4ccccc4)c(-c4ccccc4)n3c2=O)cc(OC)c1OC the AC50 [1] was 29.1 µM [falling, single point].

For O=C(C[n+]1ccccc1)Nc1c(Cl)cc(Cl)cc1Cl, the AC50 [1] was 22.4 µM [falling, single point].

With CC1CNCCN1S(=O)(=O)c1cccc2cnccc12 (stereo not drawn) the AC50 [1] was 16.4 µM [falling, single point] and the AC50 [2] was 32.6 µM [rising, partial curve, poor fit].
